Source: patent US20210402016A1 (Provincial Health Services Authority, priority 2018, published 2021)

Assay: general procedure: Fmoc solid-phase peptide synthesis; Rink amide-MBHA resin; HATU/HOAt/DIEA
Conditions: whole synthesis

| Substance | isolated yield (scale 0.1 mmol) | isolated yield (scale 0.3 mmol) |
| --- | --- | --- |
| DOTA-Pip-D-Phe-Gln-Trp-Ala-Val-Gly-His-Leu-ψ(CH2N)-Pro-NH2 | 2.4% | – |
| DOTA-pABzA-DIG-D-Phe-Gln-Trp-Ala-Val-Gly-His-Leu-ψ(CH2N)-Pro-NH2 | – | 1.1% |
